Measured values from paper PMC10163288.
The list shows a part of the results.

B1: il10ra_site1_normal_mot_HHH_b2_07521_000000141_0001_20_37_H_._HHH_b2_07723_0001_0000100012_0000001_0_af2pred_0001 (protein)
chain: SSSDLEKRVRLALRFAKFLLEQGDPEAARIIIEAAKEIAEDAGNEELQKEIEELLKEIEEKSSSS
B2: il10ra_site1_sap_20_mot_HHH_b2_04087_000000122_0001_42_56_H_._HHH_b2_08070_0001_0000400010_0000001_0_0001 (protein)
chain: SSSSDDEEYLEMALRFIEWAIKVGDEESAKRMIKAAEDIAKRLGNEEILERLEELLERLNSSSSS
B3: il10ra_site1_normal_mot_HHH_b2_05343_000000235_0001_19_35_H_._HHH_b2_03467_0001_0000300029_0000001_0 (protein)
chain: SSSSDEIEERLKELREELEELTDPQELFELIREMIELASEANSPEAARFVLEVIREWLEGSSSSS
B4: il10ra_site1_sap_15_mot_HHH_b1_02062_000000185_0001_1_20_H_._HHH_b2_06569_0001_0000400030_0000001_0_0001_af2pred_dldesign_0_af2pred (protein)
chain: SSSSSSQTRQRIRAILWFARVSSNPVVARAMLERAIELAKEIEDEELIKEAEEALKELESSSSSS
B5: il10ra_site1_sap_13_mot_HHH_b2_04592_000000276_0001_41_54_H_._2e374b53e75dc1c2421ca5e7055e643f_0001_0001_0000200012_0000001_0_0001_af2pred_dldesign_0_af2pred (protein)
chain: SSSSSDDREKLERALKYLEFIKEQGDKEAFEKHAAALLQVAKILGDEETVARVEELAAELSSSSS
B6: il10ra_site1_sap_16_mot_HHH_b2_03220_af2_000000223_0001_23_40_H_._HHH_b1_06161_af2_0001_0000300008_0000002_0_0001 (protein)
chain: SSSSSSDEEAAELIREISKVLAEGDRERVEELLEELEKLAEELGDPAARIYVEFVKQLLSSSSSS
B7: il10ra_site1_normal_mot_HHH_b2_00108_000000012_0001_38_56_H_._HHH_b2_04021_0001_0000200012_0000002_0_af2pred_0001 (protein)
chain: SSSSSEESASRFWRRSLKLALEAGNEEELKAALKAAKFLAELTNDEELEEEVEEIERELKSSSSS
B8: il10ra_site1_normal_mot_HHH_b1_06789_af2_000000041_0001_1_20_H_._HHH_b1_02788_0001_0000100006_0000001_0 (protein)
chain: SSSSDLEEEIEEAIEEARENGDELIVQILEILLRQIRRDGSPNARWLVRQVIKALKNLLENSSSS
B9: il10ra_site1_normal_mot_HHH_b2_08186_000000021_0001_43_56_H_._HHH_b2_00017_af2_0002_0000200015_0000001_0 (protein)
chain: SSSSDEEEKEVEELLEEAEKLLEEGNPEEALEVLLKALQLAYELGNAELLRRLWELLRKVLSSSS
B10: il10ra_site1_normal_mot_HHH_eva_0271_000000006_0001_43_61_H_._HHH_b1_00868_0001_0000100005_0000001_0_af2pred_0001 (protein)
chain: SSSSDLELQQRLAELILELAEELGLNSEEIAEISHEIAHLIANGVSEEELREIVEQLVRELSSSS
B11: il10ra_site1_sap_28_mot_HHH_b2_03220_af2_000000223_0001_23_40_H_._HHH_b2_00648_af2_0001_0000100001_0000001_0_0001_af2pred_0001 (protein)
chain: SSSSNAERRVAELLAEALRLANNGNPEEAEKLVEEAEELARENNDPELERAVEMAKRYIRNSSSS
B12: il10ra_site1_sap_16_mot_HHH_b2_05454_000000273_0001_1_18_H_._HHH_b1_01562_0001_0000500022_0000001_1_0001 (protein)
chain: SSSSSDEEVEELLEEARELAENGNPREAMRVLAEAVRAAYELQDEELLQAVWELVQEIAKSSSSS
B13: il10ra_site1_normal_mot_HHH_b1_00999_000000080_0001_41_55_H_._HHH_b2_05235_0001_0000500028_0000001_0 (protein)
chain: SSSSSSDVEELLEEAQELRERGNPEEALEVLQRAVRLIFELGDEELLQELWELVRKIGSSSSSSS
B14: il10ra_site1_sap_23_mot_HHH_b2_04001_000000102_0001_19_36_H_._HHH_b2_05818_af2_0001_0000500014_0000001_0_0001_af2pred_dldesign_0_af2pred (protein)
chain: SSSSSEFERLYEEAKRLLEEGDLERLAELLRRLAILAQEAKDKEKFDKVTELAIKLMELESSSSS
B15: il10ra_site1_normal_mot_HHH_b2_03425_000000200_0001_22_39_H_._HHH_b1_03120_0001_0000100001_0000001_0 (protein)
chain: SSSSNEEHEELYRRLRKLIELVSEGDEEEAEELLEELERLARELNDFIILFVVRLLKRQLSSSSS
B16: il10ra_site1_sap_23_mot_HHH_b1_02881_000000046_0001_1_20_H_._HHH_b2_07693_0001_0000300021_0000002_0_0001 (protein)
chain: SSSSDELSHEVYELLREAMELAANGNPEKAREVLEEAEEIAEESGSPVMEVLVRNMLRRLSSSSS
B17: il10ra_site1_sap_26_mot_HHH_b2_08004_000000101_0001_1_17_H_._HHH_b1_02361_af2_0001_0000100002_0000001_1_0001 (protein)
chain: SSSSSDEEFFRRIEEFAEEVGDEQILRYIRFMAMAYEMSGDPQVKRFAEQMFRWLEEKEKSSSSS
B18: il10ra_site1_normal_mot_HHH_b2_03764_000000138_0001_1_20_H_._HHH_b2_04981_0001_0000400040_0000002_0_af2pred_0001 (protein)
chain: SSSSDEEFEEVRRLLEEASELDNRGDREEAEKLVEEAIELAREGGNELLTLAAEYLLRIIRSSSS
B19: il10ra_site1_normal_mot_8756ee2cf497b5429c717dfc0c0bcfd6_0001_000000186_0001_1_13_H_._HHH_b2_01109_0001_0000300018_0000001_0_af2pred_0001 (protein)
chain: SSSSSAAERVAKLIRKAIELLRNGNPEEAREVLEEAEEVAEEGNNLNLRAVLKFLKERVNSSSSS
B20: il10ra_site1_sap_21_mot_HHH_b1_03314_af2_000000278_0001_42_55_H_._HHH_b2_06669_af2_0001_0000100001_0000001_0_0001 (protein)
chain: SSSSNDEVYEIIRRAIELLSEGDPEEAKKLVEEVKELAEEENSPVMEVLVRFLERMVEETSSSSS
B21: il10ra_site1_sap_18_mot_HHH_b2_01032_000000296_0001_1_18_H_._HHH_b2_04729_0001_0000300020_0000002_0_0001 (protein)
chain: SSSSSEAIRRIYELSRRAVELDSEGNPEEAREVVEEAIELAEEEGDPVLLRVLEHILKLLSSSSS
B22: il10ra_site1_sap_17_mot_HHH_b2_07006_000000108_0001_1_19_H_._HHH_b2_04110_0001_0000200021_0000001_0_0001 (protein)
chain: SSSSSDEVYELLQELVEAVSDGDEELFEELYERIRELVEEENNPTMRWSLEFLERDFKVRKSSSS
B23: il10ra_site1_sap_28_mot_HHH_b1_05937_af2_000000262_0001_20_37_H_._HHH_b2_07271_af2_0001_0000200012_0000001_0_0001 (protein)
chain: SSSSSDEEEQEIKALLWFAKWIPNPDAARIALERALRLAEELGNEELLEEAERLLEELNSSSSSS
B24: il10ra_site1_normal_mot_HHH_b2_00475_000000107_0001_44_57_H_._HHH_b1_05905_af2_0001_0000300009_0000001_0 (protein)
chain: SSSSDEFLRILFRLVRAAANNDEELLEELLEILEELLKHIEDEELRRYAEIALHFVRAQLESSSS
B25: il10ra_site1_sap_14_mot_HHH_b1_02896_af2_000000065_0001_1_17_H_._HHH_b1_03031_af2_0001_0000100002_0000003_0_0001_af2pred_0001 (protein)
chain: SSSSDEEAEEIIEQIEELLKRGNLHEAIRLIRELAKLVHELGDQELAEKVRELSREALKLSSSSS
B26: il10ra_site1_normal_mot_HHH_b1_02062_000000185_0001_1_20_H_._HHH_b2_00165_0001_0000200025_0000001_0 (protein)
chain: SSSSSDKSQELYELSREAAELDSEGNPEEAERLAEEAYELAEEEGSPLLFTIEYLLKHIRSSSSS
B27: il10ra_site1_normal_mot_HHH_b2_07442_000000239_0001_40_54_H_._HHH_b1_08410_0001_0000200019_0000001_1 (protein)
chain: SSSSSEELYEALRRLAELDTKGDEEEFERLVEEAERLAEELGDETFLIQIEFLLRIFREALSSSS
B28: il10ra_site1_normal_mot_HHH_b2_02053_af2_000000006_0001_3_19_H_._HHH_b1_02506_0001_0000200015_0000001_0 (protein)
chain: SSSSSDRDEEVYELIREALELRARGNPEEAREVLEEAEKLAEEANNFAALFAVRLALRDLSSSSS
B29: il10ra_site1_normal_mot_ems_3hC_416_0001_000000048_0001_1_19_H_._HHH_b1_01643_af2_0001_0000300024_0000001_0 (protein)
chain: SSSSSEENQEALELSQEAFRLLLRGNEEEAKELLEEALELAKKGGNPRLARQIEELLRSLNSSSS
B30: il10ra_site1_sap_24_mot_HHH_b1_05099_000000057_0001_40_58_H_._HHH_b1_01519_0001_0000200010_0000001_0_0001 (protein)
chain: SSSSSREAYELARRIVELILEGNPEEAEELLEELERIVRERGDQLMEFIVRLLEEQLRRLRSSSS
B31: il10ra_site1_normal_mot_HHH_b1_05056_000000217_0001_1_20_H_._HHH_b2_03821_0001_0000200015_0000001_0 (protein)
chain: SSSSSDEEYRERVEELLEEAQEIEDQEEVARLILEAIRLAYEANDQELLQLIWEVVRELTSSSSS
B32: il10ra_site1_normal_mot_HHH_b2_08186_000000021_0001_43_56_H_._HHH_b2_06806_af2_0001_0000100007_0000002_0 (protein)
chain: SSSSDEEQEELEKLLKELEELIKEGDRERFLRLLQEVLRLAYRLSDEEALRRVWELLREFASSSS
B33: il10ra_site1_normal_mot_HHH_b2_00984_000000042_0001_1_20_H_._ems_p1-16H-GBL-16H-GABBL-15H_0053_0001_0001_0001_0001_0000400027_0000001_0 (protein)
chain: SSSSSSEIVELALKLARLALEKGDEEALQVVWEAIQAWARGELSEEEVKELLEEAEELLSSSSSS
B34: il10ra_site1_sap_16_mot_HHH_b2_00612_000000251_0001_1_14_H_._HHH_b1_01579_af2_0001_0000400023_0000001_0_0001 (protein)
chain: SSSSSNEEFLELLQEAIRLAFRNSDEELLQALWRLAKEYGEEGDEKYREELEELIEEVGSSSSSS
B35: il10ra_site1_normal_mot_HHH_b2_08265_af2_000000206_0001_22_38_H_._HHH_b2_04256_0001_0000100002_0000001_0 (protein)
chain: SSSSSSSDLEELEREIEEALEEGDRELVLRLLQELLRLAFRLRDQEAIRFVWEVARELSSSSSSS
B36: il10ra_site1_normal_mot_HHH_b2_03220_af2_000000223_0001_23_40_H_._HHH_b1_07014_af2_0001_0000800025_0000001_0 (protein)
chain: SSSSDDASEEVWELLRRILELLAEGDEEEAEELLRRAKELAEEINSPVFETTLRLLEREISSSSS
B37: il10ra_site1_normal_mot_HHH_b2_07144_000000289_0001_1_18_H_._HHH_b1_01561_af2_0001_0000300017_0000001_0 (protein)
chain: SSSSNEVHEVYRLSREILRLIREGDEEQAEKLLEEVRELAEELNNFLLRFIVRALQRALNSSSSS

target: il10ra, Q13651; assay: yeast display titration

Apparent Kd, inactive:
B1 no binding seen
B2 no binding seen
B3 no binding seen
B4 no binding seen
B5 no binding seen
B6 no binding seen
B7 no binding seen
B8 no binding seen
B9 no binding seen
B10 no binding seen
B11 no binding seen
B12 no binding seen
B13 no binding seen
B14 no binding seen
B15 no binding seen
B16 no binding seen
B17 > 255 nM
B18 no binding seen
B19 no binding seen
B20 no binding seen
B21 no binding seen
B22 no binding seen
B23 no binding seen
B24 no binding seen
B25 no binding seen
B26 no binding seen
B27 no binding seen
B28 no binding seen
B29 no binding seen
B30 no binding seen
B31 no binding seen
B32 no binding seen
B33 no binding seen
B34 no binding seen
B35 no binding seen
B36 > 201 nM
B37 no binding seen

Taken from the results shown (2 entries):
Apparent Kd, inactive:
B14 no binding seen
B15 no binding seen
